Laboratory results as given in the supplement of paper PMC10849652.
This is one part of the list.

Sequences of proteins named here, by UniProt entry; tags and fusion partners are left off. A change or cut given only in a name is not applied to a line headed by its entry.
UniProt Q9NQR4: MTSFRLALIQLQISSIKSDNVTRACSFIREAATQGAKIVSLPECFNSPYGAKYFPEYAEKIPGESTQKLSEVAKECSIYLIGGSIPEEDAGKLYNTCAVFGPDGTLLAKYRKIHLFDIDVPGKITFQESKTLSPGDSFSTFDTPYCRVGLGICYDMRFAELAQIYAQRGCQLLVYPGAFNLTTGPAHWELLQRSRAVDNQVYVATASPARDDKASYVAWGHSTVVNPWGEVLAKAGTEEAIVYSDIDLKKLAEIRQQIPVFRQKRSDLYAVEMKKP
UniProt Q8TD19: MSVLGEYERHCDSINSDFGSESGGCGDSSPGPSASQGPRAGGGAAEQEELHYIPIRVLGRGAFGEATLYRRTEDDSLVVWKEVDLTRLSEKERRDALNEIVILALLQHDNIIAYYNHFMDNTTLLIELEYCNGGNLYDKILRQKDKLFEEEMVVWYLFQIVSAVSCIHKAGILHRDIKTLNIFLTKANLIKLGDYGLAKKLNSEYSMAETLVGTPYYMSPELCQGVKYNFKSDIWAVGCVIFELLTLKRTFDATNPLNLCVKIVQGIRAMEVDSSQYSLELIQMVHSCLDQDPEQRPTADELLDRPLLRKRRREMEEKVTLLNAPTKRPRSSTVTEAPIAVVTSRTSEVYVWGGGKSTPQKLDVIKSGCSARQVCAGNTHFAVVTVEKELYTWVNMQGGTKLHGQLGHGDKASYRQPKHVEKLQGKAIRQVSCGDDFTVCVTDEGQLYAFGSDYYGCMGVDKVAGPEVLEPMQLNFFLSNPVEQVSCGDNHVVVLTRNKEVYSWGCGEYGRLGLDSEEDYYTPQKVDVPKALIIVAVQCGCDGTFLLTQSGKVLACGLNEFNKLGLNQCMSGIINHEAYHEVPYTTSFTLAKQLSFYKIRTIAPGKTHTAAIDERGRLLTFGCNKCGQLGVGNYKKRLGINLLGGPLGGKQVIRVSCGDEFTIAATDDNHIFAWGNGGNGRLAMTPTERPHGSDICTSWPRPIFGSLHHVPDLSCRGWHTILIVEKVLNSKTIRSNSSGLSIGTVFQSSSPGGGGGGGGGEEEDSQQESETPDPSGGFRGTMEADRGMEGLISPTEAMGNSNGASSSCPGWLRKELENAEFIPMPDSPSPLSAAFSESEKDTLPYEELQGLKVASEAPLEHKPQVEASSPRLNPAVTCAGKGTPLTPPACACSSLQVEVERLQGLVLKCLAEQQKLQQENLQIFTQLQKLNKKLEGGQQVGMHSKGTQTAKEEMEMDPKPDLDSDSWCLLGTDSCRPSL
UniProt O95168, whole entry, looked up: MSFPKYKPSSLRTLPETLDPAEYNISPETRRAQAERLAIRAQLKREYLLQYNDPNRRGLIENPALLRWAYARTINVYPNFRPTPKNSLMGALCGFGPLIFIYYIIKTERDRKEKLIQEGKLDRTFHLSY
UniProt Q9BZQ8: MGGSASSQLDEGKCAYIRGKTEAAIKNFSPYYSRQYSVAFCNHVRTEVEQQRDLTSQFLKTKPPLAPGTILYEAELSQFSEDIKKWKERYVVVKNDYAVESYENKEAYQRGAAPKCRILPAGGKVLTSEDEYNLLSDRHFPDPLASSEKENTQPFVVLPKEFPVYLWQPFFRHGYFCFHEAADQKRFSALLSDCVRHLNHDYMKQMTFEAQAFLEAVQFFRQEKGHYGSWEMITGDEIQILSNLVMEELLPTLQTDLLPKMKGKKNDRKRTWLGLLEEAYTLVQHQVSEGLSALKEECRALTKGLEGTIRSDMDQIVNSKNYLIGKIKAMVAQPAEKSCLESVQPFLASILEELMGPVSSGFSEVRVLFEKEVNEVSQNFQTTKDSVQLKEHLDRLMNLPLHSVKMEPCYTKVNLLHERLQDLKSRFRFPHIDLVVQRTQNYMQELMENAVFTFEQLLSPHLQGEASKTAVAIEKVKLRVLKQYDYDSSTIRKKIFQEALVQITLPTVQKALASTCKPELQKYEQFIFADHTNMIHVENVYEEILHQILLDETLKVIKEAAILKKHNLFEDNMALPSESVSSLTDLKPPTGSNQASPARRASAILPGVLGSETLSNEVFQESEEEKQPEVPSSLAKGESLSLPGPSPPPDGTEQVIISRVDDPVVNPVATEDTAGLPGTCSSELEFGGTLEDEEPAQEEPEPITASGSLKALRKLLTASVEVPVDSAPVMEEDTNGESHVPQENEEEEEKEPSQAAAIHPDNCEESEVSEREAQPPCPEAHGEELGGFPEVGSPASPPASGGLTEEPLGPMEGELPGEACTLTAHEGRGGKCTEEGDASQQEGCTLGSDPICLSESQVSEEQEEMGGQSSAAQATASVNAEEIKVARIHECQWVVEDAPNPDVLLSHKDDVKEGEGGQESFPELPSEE
UniProt Q9BT67: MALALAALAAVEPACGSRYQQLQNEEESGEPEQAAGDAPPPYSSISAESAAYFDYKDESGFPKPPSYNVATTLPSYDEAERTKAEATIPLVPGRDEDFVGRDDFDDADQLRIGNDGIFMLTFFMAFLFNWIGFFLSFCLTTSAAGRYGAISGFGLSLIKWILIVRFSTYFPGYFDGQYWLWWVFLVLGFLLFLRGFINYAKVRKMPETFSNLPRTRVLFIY
UniProt Q9H3P2, whole entry, looked up: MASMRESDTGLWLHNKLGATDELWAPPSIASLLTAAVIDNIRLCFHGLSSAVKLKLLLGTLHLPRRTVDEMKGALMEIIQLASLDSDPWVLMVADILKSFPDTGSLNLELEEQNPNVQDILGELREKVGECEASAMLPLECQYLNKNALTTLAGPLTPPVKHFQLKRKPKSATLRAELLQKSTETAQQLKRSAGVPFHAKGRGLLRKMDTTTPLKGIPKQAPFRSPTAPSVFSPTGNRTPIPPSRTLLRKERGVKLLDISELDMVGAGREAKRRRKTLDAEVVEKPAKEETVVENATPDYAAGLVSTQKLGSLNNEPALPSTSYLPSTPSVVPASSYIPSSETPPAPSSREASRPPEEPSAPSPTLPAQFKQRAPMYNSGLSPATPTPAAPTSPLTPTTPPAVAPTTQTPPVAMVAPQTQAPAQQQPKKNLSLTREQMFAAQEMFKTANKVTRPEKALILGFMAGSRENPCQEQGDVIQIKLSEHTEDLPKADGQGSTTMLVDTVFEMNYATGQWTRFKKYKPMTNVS
UniProt Q9BPW8: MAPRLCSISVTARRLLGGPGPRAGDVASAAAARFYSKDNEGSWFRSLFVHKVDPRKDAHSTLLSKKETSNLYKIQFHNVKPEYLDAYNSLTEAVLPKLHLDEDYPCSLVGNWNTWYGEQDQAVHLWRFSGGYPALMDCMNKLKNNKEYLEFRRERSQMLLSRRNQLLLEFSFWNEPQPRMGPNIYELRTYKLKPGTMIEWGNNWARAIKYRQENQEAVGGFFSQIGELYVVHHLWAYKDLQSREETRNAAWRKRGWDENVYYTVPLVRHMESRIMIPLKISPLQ
UniProt P56181: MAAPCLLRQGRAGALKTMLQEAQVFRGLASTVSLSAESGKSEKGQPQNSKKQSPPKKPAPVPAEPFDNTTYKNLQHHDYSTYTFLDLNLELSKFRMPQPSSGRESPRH
UniProt P51956: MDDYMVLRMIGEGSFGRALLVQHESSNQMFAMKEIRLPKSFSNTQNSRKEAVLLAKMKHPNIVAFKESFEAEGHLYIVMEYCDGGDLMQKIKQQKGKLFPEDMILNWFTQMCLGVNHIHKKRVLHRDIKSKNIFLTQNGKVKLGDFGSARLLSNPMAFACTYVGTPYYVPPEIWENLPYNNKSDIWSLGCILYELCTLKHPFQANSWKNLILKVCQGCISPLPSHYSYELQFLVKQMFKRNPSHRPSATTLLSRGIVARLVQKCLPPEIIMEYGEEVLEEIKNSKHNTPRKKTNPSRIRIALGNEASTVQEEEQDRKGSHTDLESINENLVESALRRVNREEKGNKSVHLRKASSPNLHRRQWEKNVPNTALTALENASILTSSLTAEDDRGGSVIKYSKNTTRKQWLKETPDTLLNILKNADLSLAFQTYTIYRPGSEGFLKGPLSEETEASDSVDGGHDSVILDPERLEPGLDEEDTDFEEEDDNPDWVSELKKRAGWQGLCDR
UniProt Q330K2: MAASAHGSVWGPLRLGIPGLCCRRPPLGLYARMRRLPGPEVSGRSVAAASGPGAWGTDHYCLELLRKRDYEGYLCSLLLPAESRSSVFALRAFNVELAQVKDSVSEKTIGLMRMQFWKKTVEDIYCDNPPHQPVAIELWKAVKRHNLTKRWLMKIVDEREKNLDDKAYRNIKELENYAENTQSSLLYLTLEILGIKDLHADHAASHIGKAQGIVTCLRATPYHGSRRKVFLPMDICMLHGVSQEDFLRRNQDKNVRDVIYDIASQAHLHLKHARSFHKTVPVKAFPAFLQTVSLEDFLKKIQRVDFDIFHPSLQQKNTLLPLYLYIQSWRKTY
UniProt Q8N183: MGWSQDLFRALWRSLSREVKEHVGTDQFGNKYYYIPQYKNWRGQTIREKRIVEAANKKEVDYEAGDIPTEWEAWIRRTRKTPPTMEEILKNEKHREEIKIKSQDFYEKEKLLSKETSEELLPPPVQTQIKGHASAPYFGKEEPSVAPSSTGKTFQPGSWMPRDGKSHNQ
UniProt Q92597: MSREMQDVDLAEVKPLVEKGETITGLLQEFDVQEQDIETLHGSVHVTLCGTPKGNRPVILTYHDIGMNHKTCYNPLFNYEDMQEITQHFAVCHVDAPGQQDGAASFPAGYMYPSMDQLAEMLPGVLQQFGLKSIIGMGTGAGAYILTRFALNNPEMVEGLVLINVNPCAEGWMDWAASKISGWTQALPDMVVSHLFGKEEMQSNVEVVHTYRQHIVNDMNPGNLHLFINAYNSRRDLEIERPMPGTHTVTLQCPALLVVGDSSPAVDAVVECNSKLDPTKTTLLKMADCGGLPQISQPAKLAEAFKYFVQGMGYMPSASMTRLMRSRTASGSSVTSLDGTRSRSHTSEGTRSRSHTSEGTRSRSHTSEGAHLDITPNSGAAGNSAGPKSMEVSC
UniProt Q9GZT8: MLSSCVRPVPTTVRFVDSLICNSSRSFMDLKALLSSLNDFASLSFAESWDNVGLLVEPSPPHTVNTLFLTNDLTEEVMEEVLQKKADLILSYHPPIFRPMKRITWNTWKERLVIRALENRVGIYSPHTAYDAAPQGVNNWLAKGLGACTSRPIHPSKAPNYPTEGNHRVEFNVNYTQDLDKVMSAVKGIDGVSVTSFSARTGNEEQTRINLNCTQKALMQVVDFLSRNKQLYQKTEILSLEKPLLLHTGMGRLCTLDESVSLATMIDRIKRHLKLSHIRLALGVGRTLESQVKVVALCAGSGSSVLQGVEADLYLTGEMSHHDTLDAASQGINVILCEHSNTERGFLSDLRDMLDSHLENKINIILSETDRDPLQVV
UniProt O43181, whole entry, looked up: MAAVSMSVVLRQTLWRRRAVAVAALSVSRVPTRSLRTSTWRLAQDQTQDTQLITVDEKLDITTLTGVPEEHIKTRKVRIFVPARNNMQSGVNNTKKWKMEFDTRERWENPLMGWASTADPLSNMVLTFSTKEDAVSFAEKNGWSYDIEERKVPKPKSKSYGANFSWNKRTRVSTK
UniProt O43676, whole entry, looked up: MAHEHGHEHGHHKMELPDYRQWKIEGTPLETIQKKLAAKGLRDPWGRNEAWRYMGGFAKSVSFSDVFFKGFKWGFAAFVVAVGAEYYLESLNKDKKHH

Experiments:
Experiment in all cases: log2 fold change, soluble protein after heating vs DMSO (PISA); higher = thermal stabilisation; K562 lysate, 10 uM; active = over 0.2 and 3.5 SD of the protein, either way, in both replicates (recomputed)
lapatinib = compound: CS(=O)(=O)CCNCc1ccc(-c2ccc3ncnc(Nc4ccc(OCc5cccc(F)c5)c(Cl)c4)c3c2)o1 [lapatinib]
In short: (§1)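 A 30 min treatment with 10 μM compound was applied to crude K562 extract at 1 mg/mL protein in PBS pH 7.4 with 1 mM MgCl2. Heating for 3 min spanned 48°C-58°C, after which aliquots were pooled, adjusted to 0.5% NP-40 at 4°C and spun at 21,000xg for 90 min. TMTpro 16plex LC-MS/MS of the supernatant, with channel sums equalised, gave values recorded as log-two fold change in thermal stability against solvent controls, from duplicates.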

pictilisib = compound: CS(=O)(=O)N1CCN(Cc2cc3nc(-c4cccc5[nH]ncc45)nc(N4CCOCC4)c3s2)CC1 [pictilisib]
In short: as §1

crizotinib = compound: C[C@@H](Oc1cc(-c2cnn(C3CCNCC3)c2)cnc1N)c1c(Cl)ccc(F)c1Cl [crizotinib]
In short: as §1

[1] = compound: C[C@H](C1=CC=C(C=C1)C(=O)NC2=C3C=CNC3=NC=C2)N
In short: as §1

duvelisib = compound: C[C@H](Nc1ncnc2nc[nH]c12)c1cc2cccc(Cl)c2c(=O)n1-c1ccccc1 [duvelisib]
In short: as §1

gandotinib = compound: Cc1cc(Nc2cc(CN3CCOCC3)c3nc(C)c(Cc4ccc(Cl)cc4F)n3n2)n[nH]1 [gandotinib]
In short: as §1

tozasertib = compound: Cc1cc(Nc2cc(N3CCN(C)CC3)nc(Sc3ccc(NC(=O)C4CC4)cc3)n2)n[nH]1 [tozasertib]
In short: as §1

doramapimod = compound: Cc1ccc(-n2nc(C(C)(C)C)cc2NC(=O)Nc2ccc(OCCN3CCOCC3)c3ccccc23)cc1 [doramapimod]
In short: as §1

bafetinib = compound: Cc1ccc(NC(=O)c2ccc(CN3CC[C@H](N(C)C)C3)c(C(F)(F)F)c2)cc1Nc1nccc(-c2cncnc2)n1 [bafetinib]
In short: as §1

[2] = compound: Cc1cccc(CC(=O)N2CCc3c2ccc(-c2cn(C)c4ncnc(N)c24)c3F)n1
In short: as §1

nilotinib = compound: Cc1cn(-c2cc(NC(=O)c3ccc(C)c(Nc4nccc(-c5cccnc5)n4)c3)cc(C(F)(F)F)c2)cn1 [nilotinib]
In short: as §1

[3] = compound: Cc1nc(Nc2n[nH]c3c2CN(C(=O)N[C@H](CN(C)C)c2ccccc2)C3(C)C)c2sccc2n1
In short: as §1

dasatinib = compound: Cc1nc(Nc2ncc(C(=O)Nc3c(C)cccc3Cl)s2)cc(N2CCN(CCO)CC2)n1 [dasatinib]
In short: as §1

[4] = compound: Cc1ncc(-c2ccnc(Nc3ccc(S(C)(=O)=O)cc3)n2)n1C(C)C
In short: as §1

[5] = compound: Cn1cc(-c2ccc3c(c2)CCN3C(=O)Cc2cccc(C(F)(F)F)c2)c2c(N)ncnc21
In short: as §1

quisinostat = compound: Cn1cc(CNCC2CCN(c3ncc(C(=O)NO)cn3)CC2)c2ccccc21 [quisinostat]
In short: as §1

tipifarnib = compound: Cn1cncc1[C@@](N)(c1ccc(Cl)cc1)c1ccc2c(c1)c(-c1cccc(Cl)c1)cc(=O)n2C [tipifarnib]
In short: as §1

[6] = compound: NC(=O)Nc1cc(-c2cccc(F)c2)sc1C(=O)N[C@H]1CCCNC1
In short: as §1

[7] = compound: NC(=O)c1cnc(N[C@@H]2CCCC[C@@H]2N)nc1Nc1cccc(-n2nccn2)c1
In short: as §1

[8] = compound: NC1(c2ccc(-c3nc4ccn5c(=O)[nH]nc5c4cc3-c3ccccc3)cc2)CCC1
In short: as §1

Measured: log2 fold change

NIT2 (UniProt Q9NQR4)
inactive: lapatinib 0.002 | pictilisib -0.048 | crizotinib -0.026 | [1] -0.008 | duvelisib 0.011 | gandotinib -0.01 | tozasertib 0.002 | doramapimod -0.023 | bafetinib 0.011 | [2] -0.06 | nilotinib -0.011 | [3] 0.001 | dasatinib -0.03 | [4] -0.021 | [5] -0.027 | quisinostat 0.004 | tipifarnib 0.019 | [6] 0.021 | [7] -0.016 | [8] -0.023

NEK9 (UniProt Q8TD19)
inactive: lapatinib -0.013 | pictilisib 0.039 | crizotinib 0.057 | [1] -0.092 | duvelisib 0.006 | gandotinib 0.108 | tozasertib 0.025 | doramapimod -0.033 | bafetinib 0.014 | [2] 0.019 | nilotinib -0.024 | [3] 0.13 | dasatinib -0.002 | [4] 0.007 | [5] 0.001 | quisinostat -0.042 | tipifarnib -0.018 | [6] 0.033 | [7] 0.003 | [8] -0.026

NDUFB4 (UniProt O95168)
inactive: lapatinib -0.054 | pictilisib 0.192 | crizotinib 0.047 | [1] 0.202 | duvelisib -0.046 | gandotinib -0.168 | tozasertib -0.063 | doramapimod -0.072 | bafetinib 0.157 | [2] -0.17 | nilotinib -0.018 | [3] -0.011 | dasatinib 0.031 | [4] -0.019 | [5] -0.035 | quisinostat 0.059 | tipifarnib 0.019 | [6] 0.013 | [7] 0.014 | [8] -0.038

NIBAN1 (UniProt Q9BZQ8)
inactive: lapatinib -0.01 | pictilisib -0.035 | crizotinib -0.049 | [1] 0.051 | duvelisib 0.002 | gandotinib -0.101 | tozasertib 0.029 | doramapimod -0.025 | bafetinib -0.004 | [2] 0.014 | nilotinib 0.016 | [3] 0.036 | dasatinib -0.029 | [4] -0.015 | [5] 0.02 | quisinostat -0.013 | tipifarnib -0.03 | [6] 0.008 | [7] 0.007 | [8] -0.03

NDFIP1 (UniProt Q9BT67)
inactive: lapatinib -0.092 | pictilisib -0.001 | crizotinib -0.046 | [1] -0.003 | duvelisib -0.092 | gandotinib 0.006 | doramapimod -0.065 | bafetinib -0.257 | [2] 0.061 | nilotinib 0.082 | [3] 0.001 | dasatinib -0.009 | [4] 0.163 | [5] 0.109 | quisinostat -0.011 | tipifarnib -0.055 | [6] 0.071 | [7] 0.034 | [8] -0.043

NEB isoform 3 (UniProt P20929)
inactive: lapatinib 0.091 | pictilisib 0.104 | crizotinib -0.103 | [1] -0.202 | duvelisib -0.02 | gandotinib 0.141 | doramapimod 0.015 | bafetinib -0.046 | [2] 0.313 | nilotinib 0.14 | [3] -0.154 | dasatinib 0.031 | [4] -0.037 | [5] -0.077 | quisinostat -0.155 | tipifarnib -0.256 | [6] 0.014 | [7] 0.051 | [8] -0.103

NELFA (UniProt Q9H3P2)
inactive: lapatinib -0.031 | pictilisib 0.021 | crizotinib 0.018 | [1] 0.06 | duvelisib -0.018 | gandotinib -0.079 | tozasertib 0.048 | doramapimod 0.022 | bafetinib -0.048 | [2] -0.003 | nilotinib -0.018 | [3] -0.01 | dasatinib -0.064 | [4] -0.02 | [5] -0.009 | quisinostat -0.007 | tipifarnib 0.024 | [6] 0.03 | [7] 0.048 | [8] -0.014

NIPSNAP1 (UniProt Q9BPW8)
inactive: lapatinib 0.015 | pictilisib -0.024 | crizotinib -0.086 | [1] 0.001 | duvelisib -0.1 | gandotinib 0.008 | tozasertib 0.016 | doramapimod -0.083 | bafetinib -0.094 | [2] 0.003 | nilotinib 0.101 | [3] 0.021 | dasatinib -0.032 | [4] 0.003 | [5] -0.017 | quisinostat -0.015 | tipifarnib -0.009 | [6] 0.042 | [7] -0.004 | [8] -0.049

NDUFV3 (UniProt P56181)
inactive: lapatinib 0.104 | pictilisib 0.043 | crizotinib 0.024 | [1] -0.024 | duvelisib 0.023 | gandotinib 0.009 | tozasertib -0.122 | doramapimod -0.025 | bafetinib 0.001 | [2] -0.127 | nilotinib 0.067 | [3] 0.248 | dasatinib 0.034 | [4] -0.151 | [5] -0.074 | quisinostat -0.014 | tipifarnib -0.203 | [6] -0.065 | [7] -0.023 | [8] 0.01

NEK3 (UniProt P51956)
inactive: lapatinib -0.014 | pictilisib -0.048 | crizotinib -0.021 | [1] 0.012 | duvelisib 0.004 | gandotinib 0.113 | tozasertib 0.051 | doramapimod -0.014 | bafetinib 0.076 | [2] 0.002 | nilotinib -0.093 | [3] 0.014 | dasatinib -0.003 | [4] 0.023 | [5] -0.048 | quisinostat -0.073 | tipifarnib 0.007 | [6] 0.015 | [7] -0.094 | [8] -0.056

NDUFAF6 (UniProt Q330K2)
inactive: lapatinib 0.007 | pictilisib -0.018 | crizotinib -0.363 | [1] 0.017 | duvelisib 0.229 | gandotinib -0.203 | tozasertib 0.354 | doramapimod 0.067 | bafetinib -0.08 | [2] 0.057 | nilotinib 0.023 | [3] -0.055 | dasatinib -0.203 | [4] -0.075 | [5] 0.209 | quisinostat -0.097 | tipifarnib -0.067 | [6] 0.107 | [7] -0.02 | [8] -0.052

NDUFAF2 (UniProt Q8N183)
inactive: lapatinib -0.038 | pictilisib -0.039 | crizotinib 0.029 | [1] -0.161 | duvelisib -0.046 | gandotinib 0.117 | tozasertib 0.008 | doramapimod 0.029 | bafetinib -0.035 | [2] 0.106 | nilotinib 0.011 | [3] 0.016 | dasatinib -0.017 | [4] -0.014 | [5] 0.008 | quisinostat -0.01 | tipifarnib -0.099 | [6] -0.011 | [7] 0.032 | [8] -0.002

NDRG1 (UniProt Q92597)
inactive: lapatinib 0.088 | pictilisib -0.06 | crizotinib 0.081 | [1] 0.141 | duvelisib -0.282 | gandotinib 0.159 | doramapimod 0.057 | bafetinib -0.181 | [2] -0.034 | dasatinib -0.145 | [5] 0.254 | quisinostat -0.024 | [6] -0.02 | [7] -0.098 | [8] 0.073

NIF3L1 (UniProt Q9GZT8)
inactive: lapatinib -0.011 | pictilisib -0.051 | crizotinib 0.012 | [1] 0.011 | duvelisib 0.013 | gandotinib 0.036 | tozasertib -0.025 | doramapimod 0.015 | bafetinib 0.013 | [2] 0.005 | nilotinib -0.005 | [3] -0.004 | dasatinib 0.022 | [4] 0.011 | [5] -0.03 | quisinostat 0.005 | tipifarnib -0.025 | [6] -0.008 | [7] -0.022 | [8] 0.008

NDUFS4 (UniProt O43181)
inactive: lapatinib -0.012 | pictilisib -0.068 | crizotinib -0.013 | [1] -0.042 | duvelisib -0.014 | gandotinib 0.044 | tozasertib -0.025 | doramapimod 0.014 | bafetinib -0.021 | [2] 0.024 | nilotinib 0.017 | [3] 0.044 | dasatinib 0.019 | [4] 0.038 | [5] 0.023 | quisinostat -0.04 | tipifarnib -0.006 | [6] -0.022 | [7] 0.019 | [8] 0.012

NDUFB3 (UniProt O43676)
inactive: lapatinib -0.051 | pictilisib 0.009 | crizotinib 0.043 | [1] -0.001 | duvelisib 0.028 | gandotinib -0.042 | tozasertib 0.042 | doramapimod -0.012 | bafetinib 0.065 | [2] -0.055 | nilotinib -0.01 | [3] 0.011 | dasatinib 0.009 | [4] -0.061 | [5] 0.044 | quisinostat -0.001 | tipifarnib 0.036 | [6] 0.009 | [7] -0.036 | [8] 0.067
